Entries after “also recorded” stand apart in the source; their conditions may differ. For part of its entries the source gives two or more results. Only these are listed. There may be further records. Values that stand side by side differ for a reason that is not stated; some may be repeats, others may stem from another dose, organism or construct than stated.
How the values were obtained:
[1] = system: participants with PPF; assay: Phase 2 PPF cohort: efficacy (FVC, ppFVC), 26 weeks; settings: 60 mg BID, overall, primary estimand
Protocol: A total of 123 participants with PPF were randomized. Participants (age ≥21 years) were randomized (1:1:1) to receive 30 mg or 60 mg Compound A or PBO twice daily for 26 weeks. […] Immunosuppressive medications (mycophenolate mofetil, mycophenolic acid, azathioprine and/or tacrolimus) were permitted only if dosing is stable for ≥6 months prior to screening. If receiving antifibrotic agents pirfenidone or nintedanib, patients had to receive a stable dosage for ≥3 months prior to screening and during the screening period; if not receiving pirfenidone or nintedanib, patients had to be naive to both drugs or not have received either 4 weeks prior to Day 1. A total of 47 (38.2%) subjects were receiving antifibrotic treatment (with or without immunosuppression therapy). Of those subjects, 34 were being treated with nintedanib and 13 with pirfenidone. […]
The main efficacy endpoint, rate of FVC decline (in % of predicted) from baseline to wk-26 in the PPF cohort, was estimated using a linear mixed-effects model utilizing all FVC timepoints. It was analyzed under a primary estimand (utilizing all data, treatment policy strategy), and under supplementary estimand (utilizing all data up to the point of dose reduction, while-on-treatment strategy). […]

[2] = system: participants with PPF; assay: Phase 2 PPF cohort: safety and blood pressure monitoring
Protocol: A total of 123 participants with PPF were randomized. Participants (age ≥21 years) were randomized (1:1:1) to receive 30 mg or 60 mg Compound A or PBO twice daily for 26 weeks. […] Immunosuppressive medications (mycophenolate mofetil, mycophenolic acid, azathioprine and/or tacrolimus) were permitted only if dosing is stable for ≥6 months prior to screening. If receiving antifibrotic agents pirfenidone or nintedanib, patients had to receive a stable dosage for ≥3 months prior to screening and during the screening period; if not receiving pirfenidone or nintedanib, patients had to be naive to both drugs or not have received either 4 weeks prior to Day 1. A total of 47 (38.2%) subjects were receiving antifibrotic treatment (with or without immunosuppression therapy). Of those subjects, 34 were being treated with nintedanib and 13 with pirfenidone. Participants were stratified by usual interstitial pneumonia (UIP) pattern (presence versus absence) and background therapy (antifibrotics+/−ILD-targeted immunosuppression versus ILD-targeted immunosuppression alone versus none).UIP pattern was present in 52% of subjects and unclassifiable ILD was the most common disease categorization.
Patient is experiencing any of the following, confirmed by retest within 15 minutes: • Seated systolic blood pressure <85 mmHg • Seated diastolic blood pressure <55 mmHg • Orthostatic hypotension
Patient is experiencing symptoms that, in the investigator's opinion, could be associated with a reduction in blood pressure and is also experiencing at least one of the following, confirmed by retest within 15 minutes: • Seated systolic blood pressure <100 mmHg or seated diastolic blood pressure <60 mmHg • Decrease of seated systolic blood pressure of ≥20 mmHg from the previous visit or decrease of seated diastolic blood pressure of ≥10 mmHg from the previous visit • Orthostatic hypotension • Orthostatic tachycardia

Q: How did the “Relative reduction in rate of decline in FVC (% predicted)” value [1] turn out when `CCCN(C)C(=O)OCc1c(-c2ccc(O[C@H]3CCC[C@H](C(=O)O)C3)c(C)n2)nnn1C` was run?
A: 74%; also recorded: Policy Strategy (Relative Reduction = 74%)

Q: And the “Asymptomatic blood pressure reduction” value ([2]; 30 mg BID)?
A: 9 no and (22.5) %

Q: And the COVID-19 ([2]; 30 mg BID)?
A: 6 no and (15.0) %

Q: What about the Cough ([2]; 30 mg BID) of the same compound?
A: 3 no and (7.5) %

Q: What about the Diarrhea ([2]; 30 mg BID) of the same compound?
A: 6 no and (15.0) %

Q: What about the Dose reductions ([2]; 30 mg BID) of the same compound?
A: 6 no and (15.0) %

Q: What about the Dyspnea ([2]; 30 mg BID) of the same compound?
A: 2 no and (5.0) %

Q: What about the Hypotension ([2]; 30 mg BID) of the same compound?
A: 4 no and (10.0) %

Q: And the Nausea ([2]; 30 mg BID)?
A: 4 no and (10.0) %

Q: And the “Orthostatic hypotension (asymptomatic criteria)” value ([2]; 30 mg BID)?
A: 6 no and (15.0) %

Q: And the “Orthostatic hypotension (symptomatic criteria)” value ([2]; 30 mg BID)?
A: 1 no and (2.5) %

Q: And the “Patients with ≥1 TEAE” value ([2]; 30 mg BID)?
A: 33 no and (82.5) %

Q: And the “Patients with ≥1 TEAE related to study drug” value ([2]; 30 mg BID)?
A: 7 no and (17.5) %

Q: What about the “Patients with ≥1 TESAE” value ([2]; 30 mg BID) of the same compound?
A: 4 no and (10.0) %

Q: And the Rash ([2]; 30 mg BID)?
A: 3 no and (7.5) %

Q: And the “Symptomatic blood pressure reduction” value ([2]; 30 mg BID)?
A: 2 no and (5.0) %

Q: What about the Vomiting ([2]; 30 mg BID) of the same compound?
A: 3 no and (7.5) %

Q: And the Orthostatic hypotension ([2]; 30 mg BID (Table 26))?
A: 2 no and (5.0) %

Q: What about the “Asymptomatic blood pressure reduction” value ([2]; 60 mg BID) of the same compound?
A: 13 no and (31.0) %

Q: And the COVID-19 ([2]; 60 mg BID)?
A: 6 no and (14.3) %

Q: What about the Cough ([2]; 60 mg BID) of the same compound?
A: 5 no and (11.9) %

Q: What about the Diarrhea ([2]; 60 mg BID) of the same compound?
A: 3 no and (7.1) %

Q: And the Dizziness ([2]; 60 mg BID)?
A: 4 no and (9.5) %

Q: And the Dose reductions ([2]; 60 mg BID)?
A: 5 no and (11.9) %

Q: And the Hypertension ([2]; 60 mg BID)?
A: 1 no and (2.4) %

Q: What about the Hypotension ([2]; 60 mg BID) of the same compound?
A: 3 no and (7.1) %

Q: And the Nausea ([2]; 60 mg BID)?
A: 1 no and (2.4) %

Q: And the “Orthostatic hypotension (asymptomatic criteria)” value ([2]; 60 mg BID)?
A: 11 no and (26.2) %

Q: And the “Orthostatic hypotension (symptomatic criteria)” value ([2]; 60 mg BID)?
A: 4 no and (9.5) %

Q: And the “Patients with ≥1 TEAE” value ([2]; 60 mg BID)?
A: 28 no and (66.7) %

Q: And the “Patients with ≥1 TEAE related to study drug” value ([2]; 60 mg BID)?
A: 11 no and (26.2) %

Q: What about the “Patients with ≥1 TESAE” value ([2]; 60 mg BID) of the same compound?
A: 5 no and (11.9) %

Q: And the “Symptomatic blood pressure reduction” value ([2]; 60 mg BID)?
A: 6 no and (14.3) %

Q: And the Orthostatic hypotension ([2]; 60 mg BID (Table 26))?
A: 4 no and (9.5) %

Source: US20260382583A1, “LPA1 ANTAGONISTS FOR TREATING INTERSTITIAL LUNG DISEASE” (published 2026)
